The text below walks through data of PMC8545117.

Chains of the proteins cited; added tags and fusions are not shown.
UniProt Q9HWC9: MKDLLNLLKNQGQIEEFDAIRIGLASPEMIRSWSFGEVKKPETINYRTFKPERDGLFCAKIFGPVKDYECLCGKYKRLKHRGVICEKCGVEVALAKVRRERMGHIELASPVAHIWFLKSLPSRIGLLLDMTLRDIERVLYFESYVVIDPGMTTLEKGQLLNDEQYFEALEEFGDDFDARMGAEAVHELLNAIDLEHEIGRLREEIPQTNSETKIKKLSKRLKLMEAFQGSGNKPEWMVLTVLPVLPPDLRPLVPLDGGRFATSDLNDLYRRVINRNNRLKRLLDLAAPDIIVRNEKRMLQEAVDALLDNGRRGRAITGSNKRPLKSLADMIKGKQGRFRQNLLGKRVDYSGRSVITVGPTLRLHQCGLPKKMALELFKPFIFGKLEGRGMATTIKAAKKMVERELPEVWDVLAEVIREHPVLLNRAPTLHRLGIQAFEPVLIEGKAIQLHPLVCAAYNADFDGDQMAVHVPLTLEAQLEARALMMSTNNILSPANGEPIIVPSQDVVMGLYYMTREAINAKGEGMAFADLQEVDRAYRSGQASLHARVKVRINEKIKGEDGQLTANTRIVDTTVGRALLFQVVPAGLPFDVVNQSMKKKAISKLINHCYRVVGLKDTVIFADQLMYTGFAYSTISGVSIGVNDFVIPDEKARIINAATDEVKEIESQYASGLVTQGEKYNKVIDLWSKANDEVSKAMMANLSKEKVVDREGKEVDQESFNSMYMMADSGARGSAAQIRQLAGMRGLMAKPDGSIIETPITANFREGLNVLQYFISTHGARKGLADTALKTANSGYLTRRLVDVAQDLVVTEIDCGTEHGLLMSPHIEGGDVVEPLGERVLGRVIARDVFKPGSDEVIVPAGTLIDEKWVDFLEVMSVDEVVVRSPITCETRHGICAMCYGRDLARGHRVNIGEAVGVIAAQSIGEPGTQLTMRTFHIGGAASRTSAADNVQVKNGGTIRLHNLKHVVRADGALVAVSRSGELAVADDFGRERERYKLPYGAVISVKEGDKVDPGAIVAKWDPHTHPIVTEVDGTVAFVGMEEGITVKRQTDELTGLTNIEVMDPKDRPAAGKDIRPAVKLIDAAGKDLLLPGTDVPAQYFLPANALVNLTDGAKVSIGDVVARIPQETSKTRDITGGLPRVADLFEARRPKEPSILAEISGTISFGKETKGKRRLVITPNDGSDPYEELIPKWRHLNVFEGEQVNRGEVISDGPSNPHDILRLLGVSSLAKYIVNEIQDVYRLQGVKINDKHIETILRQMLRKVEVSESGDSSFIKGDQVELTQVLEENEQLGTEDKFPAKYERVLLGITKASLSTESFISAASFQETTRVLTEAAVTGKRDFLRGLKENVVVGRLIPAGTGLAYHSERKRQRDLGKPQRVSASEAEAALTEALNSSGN
UniProt P30718: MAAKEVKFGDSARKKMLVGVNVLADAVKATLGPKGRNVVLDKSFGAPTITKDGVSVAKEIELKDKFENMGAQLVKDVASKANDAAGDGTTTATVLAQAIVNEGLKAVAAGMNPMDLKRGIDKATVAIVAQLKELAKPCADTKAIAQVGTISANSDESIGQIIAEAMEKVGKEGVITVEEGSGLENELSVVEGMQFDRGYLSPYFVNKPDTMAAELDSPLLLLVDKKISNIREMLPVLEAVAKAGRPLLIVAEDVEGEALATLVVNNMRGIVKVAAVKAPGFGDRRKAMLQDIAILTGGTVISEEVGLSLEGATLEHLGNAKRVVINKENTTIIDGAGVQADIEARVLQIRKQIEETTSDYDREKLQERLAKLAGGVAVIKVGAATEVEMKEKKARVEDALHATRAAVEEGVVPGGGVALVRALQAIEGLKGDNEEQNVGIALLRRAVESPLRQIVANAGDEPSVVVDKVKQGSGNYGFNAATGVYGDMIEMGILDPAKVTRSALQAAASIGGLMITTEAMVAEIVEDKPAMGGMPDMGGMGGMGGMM
UniProt Q51561: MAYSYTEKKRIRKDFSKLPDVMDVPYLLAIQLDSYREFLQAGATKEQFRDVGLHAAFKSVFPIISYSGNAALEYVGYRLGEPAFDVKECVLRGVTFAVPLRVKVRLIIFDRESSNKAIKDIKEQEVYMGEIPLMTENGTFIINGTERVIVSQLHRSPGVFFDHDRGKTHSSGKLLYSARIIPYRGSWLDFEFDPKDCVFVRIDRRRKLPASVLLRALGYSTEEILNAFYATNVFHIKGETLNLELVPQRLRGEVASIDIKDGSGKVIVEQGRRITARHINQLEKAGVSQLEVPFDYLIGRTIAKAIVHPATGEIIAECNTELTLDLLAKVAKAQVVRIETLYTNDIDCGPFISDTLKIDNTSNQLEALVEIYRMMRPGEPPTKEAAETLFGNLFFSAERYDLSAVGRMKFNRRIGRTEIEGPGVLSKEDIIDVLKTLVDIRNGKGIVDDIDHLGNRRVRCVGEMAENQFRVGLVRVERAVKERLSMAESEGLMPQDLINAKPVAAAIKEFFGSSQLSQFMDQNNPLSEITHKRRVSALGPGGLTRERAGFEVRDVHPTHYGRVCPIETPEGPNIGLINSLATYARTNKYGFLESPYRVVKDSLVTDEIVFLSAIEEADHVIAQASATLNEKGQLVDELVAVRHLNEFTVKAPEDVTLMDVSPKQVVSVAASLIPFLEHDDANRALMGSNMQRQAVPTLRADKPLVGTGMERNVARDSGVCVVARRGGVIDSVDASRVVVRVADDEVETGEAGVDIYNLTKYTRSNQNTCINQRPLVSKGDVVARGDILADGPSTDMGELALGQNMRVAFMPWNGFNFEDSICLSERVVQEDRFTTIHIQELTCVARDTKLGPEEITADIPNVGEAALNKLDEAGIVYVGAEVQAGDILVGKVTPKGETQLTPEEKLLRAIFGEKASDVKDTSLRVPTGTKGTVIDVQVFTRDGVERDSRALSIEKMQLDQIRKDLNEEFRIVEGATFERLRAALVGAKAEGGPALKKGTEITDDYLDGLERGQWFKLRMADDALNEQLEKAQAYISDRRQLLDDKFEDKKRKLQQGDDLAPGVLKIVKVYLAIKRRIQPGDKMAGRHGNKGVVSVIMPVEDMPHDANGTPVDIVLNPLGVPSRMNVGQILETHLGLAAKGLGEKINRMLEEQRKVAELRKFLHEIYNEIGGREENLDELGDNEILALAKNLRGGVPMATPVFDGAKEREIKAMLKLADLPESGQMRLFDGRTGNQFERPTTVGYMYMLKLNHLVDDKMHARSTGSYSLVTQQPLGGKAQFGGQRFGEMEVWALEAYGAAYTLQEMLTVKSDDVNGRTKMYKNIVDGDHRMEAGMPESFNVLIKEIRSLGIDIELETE
UniProt O52760: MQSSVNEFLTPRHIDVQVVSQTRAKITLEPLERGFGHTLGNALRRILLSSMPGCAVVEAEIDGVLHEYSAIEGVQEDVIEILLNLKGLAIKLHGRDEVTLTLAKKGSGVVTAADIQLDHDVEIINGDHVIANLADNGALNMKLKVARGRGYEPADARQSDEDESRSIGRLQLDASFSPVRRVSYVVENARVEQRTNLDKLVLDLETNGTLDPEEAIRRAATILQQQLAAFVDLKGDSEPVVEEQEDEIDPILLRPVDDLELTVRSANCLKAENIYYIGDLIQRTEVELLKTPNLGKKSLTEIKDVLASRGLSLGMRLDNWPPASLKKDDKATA

For assay [1], the target named is RNA polymerase subunit beta' RpoC (P. aeruginosa (endogenous in strain PAO1)) (UniProt Q9HWC9). Kind of assay: co-sedimentation; Grad-seq: cleared lysate of P. aeruginosa PAO1 (LB, OD600 0.3) on a linear 10% to 40% (wt/vol) glycerol gradient, SW40Ti, 100,000 x g, 17 h, 4°C; 20 fractions and pellet analysed by SDS-PAGE and nanoLC-MS/MS; lysis buffer 20 mM Tris-HCl pH 7.5, 150 mM KCl, 1 mM MgCl2, 1 mM DTT, 0.2% Triton X-100.

The target of assay [2] is GroEL (P. aeruginosa (endogenous in strain PAO1)) (UniProt P30718). The description is as above.

Results are given in words; binding and its absence hold for the method and conditions named. In cells and extracts the contact can be indirect. Some results given as binding are weak or reduced against the parent protein; the word gives no strength.

Regarding “RNA polymerase subunit beta RpoB (from UniProt Q51561 1-1357)”, in assay [1], the binding result is reported as “binds”.

“RNA polymerase subunit alpha RpoA (from UniProt O52760 1-333)”: in assay [1], the binding entry was “binds”. Take GroEL (from UniProt P30718 1-547): the binding entry in assay [2] is recorded as “binds”.

B1: RNA polymerase subunit omega RpoZ (protein, UniProt B7V5M8 1-88)
chain: MARVTVEDCLDNVDNRFELVMLATKRARQLATGGKEPKVAWENDKPTVVALREIASGLVDENVVQQEDIVEDEPLFAAFDDEANTEAL
Take B1: the binding entry in assay [1] is given as “binds”.

B2: GroES (protein, UniProt P30720 1-97)
chain: MKLRPLHDRVVIRRSEEETKTAGGIVLPGSAAEKPNRGEVVAVGTGRVLDNGEVRALAVKVGDKVVFGPYSGSNAIKVDGEELLVMGESEILAVLED
For B2, the binding entry in assay [2] is given as “no binding”.
